No constants are given. Whether binding was seen depends on the method and setting. In cells and extracts the contact can be indirect. Here binding means that the protein was enriched with, or labelled near, the bait; the list need not be complete.

Protein sequences, listed by entry. Tags and fused reporters are not part of them.
UniProt Q96RN5: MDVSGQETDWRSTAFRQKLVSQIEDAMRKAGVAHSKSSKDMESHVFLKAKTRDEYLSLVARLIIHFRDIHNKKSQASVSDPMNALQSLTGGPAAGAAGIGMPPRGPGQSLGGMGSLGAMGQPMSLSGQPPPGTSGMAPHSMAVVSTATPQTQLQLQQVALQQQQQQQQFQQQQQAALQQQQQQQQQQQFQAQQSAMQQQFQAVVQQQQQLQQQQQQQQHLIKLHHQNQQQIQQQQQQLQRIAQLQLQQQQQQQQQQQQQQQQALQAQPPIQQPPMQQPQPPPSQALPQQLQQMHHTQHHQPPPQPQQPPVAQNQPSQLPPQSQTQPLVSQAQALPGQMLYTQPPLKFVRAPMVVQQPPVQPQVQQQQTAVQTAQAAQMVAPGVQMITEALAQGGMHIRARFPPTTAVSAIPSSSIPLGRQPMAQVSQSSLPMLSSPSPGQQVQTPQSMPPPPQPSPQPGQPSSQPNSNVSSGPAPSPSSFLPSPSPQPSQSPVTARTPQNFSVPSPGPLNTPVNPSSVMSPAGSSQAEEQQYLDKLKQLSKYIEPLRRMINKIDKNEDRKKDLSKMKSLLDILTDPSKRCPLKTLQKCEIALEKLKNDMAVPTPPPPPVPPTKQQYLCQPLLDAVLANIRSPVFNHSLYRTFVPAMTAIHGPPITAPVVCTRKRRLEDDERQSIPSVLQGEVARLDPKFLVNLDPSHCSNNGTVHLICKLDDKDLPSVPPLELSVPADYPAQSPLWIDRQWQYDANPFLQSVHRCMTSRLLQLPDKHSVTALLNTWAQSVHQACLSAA

Our source for the binding values is publication PMC12365249.

In this assay the target is HA-MED15 (Mediator subunit MED15, HA tag knocked into the N-terminus of the endogenous gene) (human (endogenous in 293T)) (UniProt Q96RN5). As to the kind of experiment: affinity purification with mass spectrometry; HA IP with anti-HA magnetic beads from nuclear extracts of HA-MED15 knock-in 293T cells against 293T WT control cells, n = 3.

B1: forkhead box protein A1 (FOXA1), endogenous in 293T cells (protein, UniProt P55317 1-472)
chain: MLGTVKMEGHETSDWNSYYADTQEAYSSVPVSNMNSGLGSMNSMNTYMTMNTMTTSGNMTPASFNMSYANPGLGAGLSPGAVAGMPGGSAGAMNSMTAAGVTAMGTALSPSGMGAMGAQQAASMNGLGPYAAAMNPCMSPMAYAPSNLGRSRAGGGGDAKTFKRSYPHAKPPYSYISLITMAIQQAPSKMLTLSEIYQWIMDLFPYYRQNQQRWQNSIRHSLSFNDCFVKVARSPDKPGKGSYWTLHPDSGNMFENGCYLRRQKRFKCEKQPGAGGGGGSGSGGSGAKGGPESRKDPSGASNPSADSPLHRGVHGKTGQLEGAPAPGPAASPQTLDHSGATATGGASELKTPASSTAPPISSGPGALASVPASHPAHGLAPHESQLHLKGDPHYSFNHPFSINNLMSSSEQQHKLDFKAYEQALQYSPYGSTLPASLPLGSASVTTRSPIEPSALEPAYYQGVYSRPVLNTS
On to B1, for which the binding entry is given as “binds”.
